Laboratory results from paper PMC9206387.
These are yes or no findings as the source states them, for the method shown. Binding seen in cells or lysates may run through a third protein. Some entries that bind do so weakly or less than the wild type.

Sequences of proteins named here, by UniProt entry; tags and fusion partners are left off. Residues count along the entry.
UniProt Q8N423, residues 22-597: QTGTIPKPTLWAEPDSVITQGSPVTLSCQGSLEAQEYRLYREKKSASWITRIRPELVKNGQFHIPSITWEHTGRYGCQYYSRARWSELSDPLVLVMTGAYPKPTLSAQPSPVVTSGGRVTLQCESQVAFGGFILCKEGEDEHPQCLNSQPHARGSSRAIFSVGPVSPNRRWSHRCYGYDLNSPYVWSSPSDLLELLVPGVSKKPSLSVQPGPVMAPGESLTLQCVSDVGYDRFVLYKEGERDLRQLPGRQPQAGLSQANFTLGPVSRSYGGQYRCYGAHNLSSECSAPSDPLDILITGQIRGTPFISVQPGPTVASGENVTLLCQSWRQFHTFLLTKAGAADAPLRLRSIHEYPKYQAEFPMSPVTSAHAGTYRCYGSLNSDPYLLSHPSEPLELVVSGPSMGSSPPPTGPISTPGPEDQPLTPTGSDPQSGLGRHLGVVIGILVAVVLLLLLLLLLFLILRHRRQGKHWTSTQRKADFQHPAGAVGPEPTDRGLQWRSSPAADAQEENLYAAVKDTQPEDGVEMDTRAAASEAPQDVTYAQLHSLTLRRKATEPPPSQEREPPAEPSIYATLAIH
UniProt P29350: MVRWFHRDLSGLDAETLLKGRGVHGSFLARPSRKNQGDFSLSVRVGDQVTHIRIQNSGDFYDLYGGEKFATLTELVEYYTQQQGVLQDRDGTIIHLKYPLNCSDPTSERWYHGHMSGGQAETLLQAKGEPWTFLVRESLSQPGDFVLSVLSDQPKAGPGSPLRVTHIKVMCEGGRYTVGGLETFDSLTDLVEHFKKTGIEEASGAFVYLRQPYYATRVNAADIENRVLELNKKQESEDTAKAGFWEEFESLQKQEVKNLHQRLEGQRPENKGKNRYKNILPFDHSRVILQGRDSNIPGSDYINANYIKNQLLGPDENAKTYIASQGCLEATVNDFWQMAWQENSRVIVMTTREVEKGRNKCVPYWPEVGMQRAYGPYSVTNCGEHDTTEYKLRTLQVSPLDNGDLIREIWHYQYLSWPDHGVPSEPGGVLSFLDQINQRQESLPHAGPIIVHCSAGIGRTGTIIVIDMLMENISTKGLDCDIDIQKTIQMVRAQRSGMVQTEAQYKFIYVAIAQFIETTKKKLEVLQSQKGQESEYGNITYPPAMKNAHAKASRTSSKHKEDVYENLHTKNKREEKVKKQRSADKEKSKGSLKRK

Target: LILRB2, endogenous in HMC3 cells (human (endogenous in HMC3)) (UniProt Q8N423)
Assay: co-IP; anti-LILRB2 immunoprecipitation from HMC3 cells incubated with oAβ-lipoprotein complex and indicated treatments (Ctrl IgG, Ab29, plate-bound 42D1) for 1 hour; immunoblot of pSHP1 and SHP1, LILRB2 as loading control

## Src homology region 2 domain-containing phosphatase-1 (from UniProt P29350 1-595) (enzyme)
  binding: binds
